Assay results from patent US20240327364A1, “THERAPEUTIC TARGETING OF GPR68 TO INDUCE FERROPTOSIS” (University Of Maryland, Baltimore, priority 2023, published 2024).
At least one structure is not confirmed: it was looked up by name or label, or the drawing left a doubt.

How the values were obtained:
zebrafish embryo = test: Zebrafish embryo phenotype; format: in vivo; conditions: zebrafish phenotype induced, Y or N
Procedure: A chemical screen for small molecules that perturb embryonic development (dorsoventral axis) in zebrafish was performed as previously described (see Chen et al., 2009; Hao et al., 2013; Williams et al., 2015; Yu et al., 2008)). Briefly, pairs of WT zebrafish were mated, and fertilized eggs were arrayed in 96-well microtiter plates (5 embryos/well) containing […] E3 water. At 4 hours post fertilization (pf), a small molecule library from Vanderbilt High Throughput Screening Facility was added to each well to a final concentration of 10 μM. Embryos were incubated at 28.5 C until 24 and 48 hours pf, when they were examined for gross morphologic changes indicative of reproducible embryonic defects (dorsalization of the embryonic axis). A total of 30,000 compounds were screened. To discover novel small molecule modulators of embryonic development an unbiased screen of ˜30,000 small molecules was conducted, in which the compounds were assayed for their ability to induce phenotypic changes in the morphology of zebrafish. Further information on these assays can be found in Hao et al., 2013 and Williams et al., 2015. […] This compound was identified based on the phenotype of aberrant pigmentation. […] Since GPCRs represent >30% of targets for FDA-approved small molecules and are known to modulate cell migration, activity against 158 GPCRs was assessed based on their chemical structures. […]

U138 = test: 2D cell growth/viability; format: cell-based, human
Procedure: GBM neurospheres and low passage PDX models were plated in 96-well plates at 10,000 cells per well in 50 μL of neural stem cell media. The next day, the cells were treated with OGM2 compounds at the indicated concentrations, in triplicates, by adding an equal volume of medium containing 2× the final concentration of compound. Following 72 hours incubation under standard cell culture conditions, relative cell number was assessed using Cell Titer-Glo Luminescent Cell Viability Assay (Promega™) following the manufacturer's instructions. Luminescence was determined using a Cytation 5 reader and Gen5 software package (BioTek™). For U87 and U138 cell lines, one thousand cells were plated per well in a standard 96-well plate and allowed to attach for 24 hours before exposure to concentrations of vehicle, OGM2, or TMZ. Cells were treated for 72 hours and then stained with DAPI. A 10× magnification lens on a LionheartFX (BioTek™) was used to image the wells, and images were stitched together with Gen5 software (BioTek™). Automated nuclei counting was also done using the Gen5 software. Results reported as percent response relative to DMSO control. IC50 (the concentration causing 50% inhibition) was determined by GraphPad Prism™ version 6.07.
Temozolomide is the standard of care for glioblastoma but only works on 30% of patients. […]

U138 spheroids = test: GBM spheroid assay; format: cell-based, human
Procedure: One thousand cells per well were plated in an ultra-low attachment, round-bottomed, 96-well plate, and spheroids were allowed to form for 3 days. Wells were then exposed to concentrations of vehicle, OGM2 or TMZ or a combination for 3 days. Spheroids were imaged in brightfield at 10× using z-stacks that were collapsed into z-projections in the Gen5 software using the LionheartFx (BioTek™). Automated measurements of the spheroid area were obtained using Gen5 software.
Tumor spheroid cultures are a more physiological model of tumor growth than typical 2D cell culture. Temozolomide sensitive U87 (FIG. 20A) and Temozolomide insensitive U138 (FIG. 20B) glioblastoma cell lines were plated in low attachment round bottom 96-well plates and allowed to form tumor spheroids for 3 days (T0). At T0, spheroids were imaged using Lionheart™ (HCS) High-Content Imaging Systems (Biotek™) and then were exposed to increasing doses of either Temozolomide or OGM2. After 5 days of treatment the spheroids were imaged again (T5). The size (area) of the spheroids after 5 days of treatment was quantified, and the average size of the spheroids at TO is depicted in red.

HEK293 = test: Liperfluo lipid peroxidation, HEK293; format: cell-based, human
Procedure: Cells were plated on a 100 mm cell culture dish (CELLTREAT Scientific Products) in 10 mls of DMEM with high glucose, GlutaMAX, HEPES, Penicillin-Streptomycin (ThermoFisher™) and 10% FBS. Cells were incubated overnight at 37° C. in 5% CO2. Media were then replaced with […] fresh media with DMSO, OGM2, or Erastin (APExBIO Technology™) and the cells incubated for 3 days. On the third day, 3 mL fresh media with 2.5 μM Liperfluo™ (Dojindo Molecular Technologies™, Inc.) resuspended in DMSO was added and cells were incubated at 37° C. in 5% CO2 for 1 hour. Cells were subsequently trypsinized for 5 minutes, pelleted by centrifugation, and resuspended in cell sorting media (1% BSA and 1 mM EDTA in PBS pH 7.4). Ten thousand events were recorded on a BD LSR II and the data processed using the FlowJo™ software.

COc1cc(Br)c(S(=O)(=O)Nc2ccc(Cl)c(O[C@@H]3CCN(C)C3)c2)cc1OC [UT2i]
Phenotype (zebrafish embryo): N

Cn1nnc2c(C(N)=O)ncn2c1=O [TMZ, Temozolomide, reference compound]
cell growth in 2D culture (U138): but not
growth of 3D spheroids (U138 spheroids): but not

CCOc1ccccc1-n1c(C(C)N2CCN(C(=O)COc3ccc(Cl)cc3)CC2)nc2ccccc2c1=O (centres unmarked) [erastin, reference compound]
lipid peroxidation (HEK293): increased lipid peroxidation

Cc1noc(-c2ccc(CSCCC(=O)O)cc2)c1NC(=O)OC(C)c1ccccc1Cl (centres unmarked) [LPAi]
Phenotype (zebrafish embryo): N
